{"source": "PubChem BioAssay AID743121 (NCATS, 2013)", "purpose": "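Partners whose loss is lethal together with topoisomerase I blockade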 (primary screen)", "cell system": "MDA-MB-231 cells, a human breast cancer line", "reagent": "single siRNA against human genes, 20 nM siRNA (0.8 pmol per well)", "timing": "120 h (drug added 48 h after transfection, read 72 h later)", "conditions": "camptothecin 20 nM (about EC30) for 72 h; vehicle 0.1% DMSO in parallel plates", "measured": "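Cell viability by ATP luminescence (CellTiter-Glo) as % of non-targeting siRNA wells, and the log2 ratio of viability without drug over viability with camptothecin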", "reading the numbers": "log2 vehicle/camptothecin viability: higher = stronger sensitisation to camptothecin; viability with camptothecin: higher = more viable cells", "units": "viability with camptothecin in % of control", "call rule": "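Each gene scored by redundant siRNA activity (RSA) over its individual siRNA ratios; a gene is called active at p < 0.001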", "note": "Here is an unselected part of about 26,000 reagents tested. 167 of them (0.63%) count as active. 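Calls are per gene from RSA p-values that are not deposited; an individual active-marked siRNA can sensitise only weakly.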 Reagents against one gene are numbered here. Not all columns of the deposit are shown. No sequences are given here."}
{"gene knocked down": "ASB15", "reagent": 1, "log2 vehicle/camptothecin viability": -0.22, "viability with camptothecin": 58.9, "call": "inactive"}
{"gene knocked down": "ASB15", "reagent": 2, "log2 vehicle/camptothecin viability": -0.0202, "viability with camptothecin": 74.1, "call": "inactive"}
{"gene knocked down": "ASB15", "reagent": 3, "log2 vehicle/camptothecin viability": 0.0717, "viability with camptothecin": 108, "call": "inactive"}
{"gene knocked down": "CACNA1E", "reagent": 1, "log2 vehicle/camptothecin viability": -0.142, "viability with camptothecin": 93.2, "call": "inactive"}
{"gene knocked down": "CACNA1E", "reagent": 2, "log2 vehicle/camptothecin viability": -0.409, "viability with camptothecin": 68.5, "call": "inactive"}
{"gene knocked down": "CACNA1E", "reagent": 3, "log2 vehicle/camptothecin viability": -0.534, "viability with camptothecin": 57, "call": "inactive"}
{"gene knocked down": "CACNA1E", "reagent": 4, "log2 vehicle/camptothecin viability": -0.425, "viability with camptothecin": 62.6, "call": "inactive"}
{"gene knocked down": "APLN", "reagent": 1, "log2 vehicle/camptothecin viability": -0.437, "viability with camptothecin": 102, "call": "inactive"}
{"gene knocked down": "APLN", "reagent": 2, "log2 vehicle/camptothecin viability": -0.152, "viability with camptothecin": 83.8, "call": "inactive"}
{"gene knocked down": "APLN", "reagent": 3, "log2 vehicle/camptothecin viability": -0.431, "viability with camptothecin": 65.3, "call": "inactive"}
{"gene knocked down": "APLN", "reagent": 4, "log2 vehicle/camptothecin viability": 0.0347, "viability with camptothecin": 74, "call": "inactive"}
{"gene knocked down": "AFF2", "reagent": 1, "log2 vehicle/camptothecin viability": -0.197, "viability with camptothecin": 69, "call": "inactive"}
{"gene knocked down": "AFF2", "reagent": 2, "log2 vehicle/camptothecin viability": 0.0441, "viability with camptothecin": 57.7, "call": "inactive"}
{"gene knocked down": "AFF2", "reagent": 3, "log2 vehicle/camptothecin viability": 1.7, "viability with camptothecin": 16.5, "call": "inactive"}
{"gene knocked down": "AFF2", "reagent": 4, "log2 vehicle/camptothecin viability": -0.27, "viability with camptothecin": 41.9, "call": "inactive"}
{"gene knocked down": "CNR1", "reagent": 1, "log2 vehicle/camptothecin viability": 0.219, "viability with camptothecin": 51.4, "call": "inactive"}
{"gene knocked down": "CNR1", "reagent": 2, "log2 vehicle/camptothecin viability": -0.251, "viability with camptothecin": 82.3, "call": "inactive"}
{"gene knocked down": "CNR1", "reagent": 3, "log2 vehicle/camptothecin viability": -0.697, "viability with camptothecin": 67.6, "call": "inactive"}
{"gene knocked down": "CNR1", "reagent": 4, "log2 vehicle/camptothecin viability": -0.0288, "viability with camptothecin": 92.4, "call": "inactive"}
{"gene knocked down": "PPP1R8", "reagent": 1, "log2 vehicle/camptothecin viability": -0.292, "viability with camptothecin": 109, "call": "inactive"}
{"gene knocked down": "PPP1R8", "reagent": 2, "log2 vehicle/camptothecin viability": -0.339, "viability with camptothecin": 59.5, "call": "inactive"}
{"gene knocked down": "PPP1R8", "reagent": 3, "log2 vehicle/camptothecin viability": -0.0686, "viability with camptothecin": 89.1, "call": "inactive"}
{"gene knocked down": "PPP1R8", "reagent": 4, "log2 vehicle/camptothecin viability": -0.0849, "viability with camptothecin": 112, "call": "inactive"}
{"gene knocked down": "PHF20", "reagent": 1, "log2 vehicle/camptothecin viability": 0.0353, "viability with camptothecin": 102, "call": "inactive"}
{"gene knocked down": "PHF20", "reagent": 2, "log2 vehicle/camptothecin viability": -0.293, "viability with camptothecin": 50.4, "call": "inactive"}
{"gene knocked down": "PHF20", "reagent": 3, "log2 vehicle/camptothecin viability": -0.348, "viability with camptothecin": 75.9, "call": "inactive"}

Limited to “log2 vehicle/camptothecin viability”, for 2 of the entries above:
CACNA1E #1 = -0.142
CACNA1E #2 = -0.409
